The list shows a part of the results.

By UniProt entry, the sequences of proteins in these tests, tags left out.
UniProt Q0JBA9, entry or part of it: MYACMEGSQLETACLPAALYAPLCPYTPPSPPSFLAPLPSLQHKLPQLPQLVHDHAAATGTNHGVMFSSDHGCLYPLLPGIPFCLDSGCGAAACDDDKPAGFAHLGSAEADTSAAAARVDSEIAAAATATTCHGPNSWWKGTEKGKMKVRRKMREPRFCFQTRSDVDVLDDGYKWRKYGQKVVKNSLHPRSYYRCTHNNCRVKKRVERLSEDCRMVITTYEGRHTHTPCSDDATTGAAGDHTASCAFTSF

The target in the experiment is OsWRKY34 (Oryza sativa, UniProt Q0JBA9 1-250). Briefly: protein-binding microarray (RPBM); PBS, 2% BSA, 51.3 ng/ul salmon testes DNA, 50 uM zinc acetate, 200 nM TF, 25 C, 1 h; high values mean tight binding. The note with it: protein: recombinant; tags: N-terminal polyhistidine and DsRed monomer fusion (pET32a); label: CyDye5-dUTP incorporated in the synthesized complementary strand; 3' TTTTT single-stranded linker to array surface; dsDNA, one strand shown. The method in brief: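 Transcription factors were made in E. coli BL21-CodonPlus as N-terminal fusions to a polyhistidine tag and DsRed, then purified on Ni–NTA. After primer extension with Cy5-dUTP and blocking with 2% BSA, a custom Agilent array was exposed for 1 h at 25 °C to 200 nM protein in PBS, 2% BSA, salmon testes DNA and 50 µM zinc acetate. Washed arrays were scanned on an Axon 4000B, and the binding signal is per-feature fluorescence intensity in arbitrary units.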
Turning to “AGTGATGCTTTTGTTCCACCTAGTAGTGTTAATAATTTGCCGGAGTCACCTAGTGCAG”, the binding signal is 8680 fluorescence intensity (a.u.). Under “TTCCAACCTTATGAGTCTCACATTCCCTATCTTCTTCACTCGGAGTCACCTAGTGCAG” stands 8340 fluorescence intensity (a.u.). In the case of “TGGGGTGGCGACGACGGATTAAAAGTTGGGTGGCTATTTTCGGAGTCACCTAGTGCAG”, the binding signal is 9230 fluorescence intensity (a.u.). Under “TTTGACATATTTTAAGGGGATTTTCTGTCAAATGTTATATCGGAGTCACCTAGTGCAG” stands 8180 fluorescence intensity (a.u.). Under “GCTTAGCGTGGTTTTTTTTTTTTTTTTGTCGTTTCTGATTCGGAGTCACCTAGTGCAG” stands 9090 fluorescence intensity (a.u.); under “TCGCCCTCGACTCCGCTCTCCTGCGCTGCCCGATTTCCATCGGAGTCACCTAGTGCAG”, 9820 fluorescence intensity (a.u.). Take “AAGGGGTGTAGCTATATTTATGGCGCCATATTTTTCATCACGGAGTCACCTAGTGCAG”: the binding signal is 10200 fluorescence intensity (a.u.). As for “CACTTCACTGATCACTTCTTCCACCCTGCTCGATCACTCCCGGAGTCACCTAGTGCAG”, the binding signal is 9550 fluorescence intensity (a.u.).

For “GAGAAGAGATTGCTGACTAGGATTGTTGGCCCCACATTTTCGGAGTCACCTAGTGCAG”, the binding signal was 8480 fluorescence intensity (a.u.). In the case of “GTTGGTGACTCTTAGCTCAGTCGGCTCGTTATGTTTCTGACGGAGTCACCTAGTGCAG”, the binding signal is 8990 fluorescence intensity (a.u.). Turning to “AAATAATTAATGACCTCCTAATATTTCATCATCGTCTTCTCGGAGTCACCTAGTGCAG”, the binding signal is 9080 fluorescence intensity (a.u.). For “AAAATCCTTTTGCAATATTTCATACTACCTTATGGGATATCGGAGTCACCTAGTGCAG”, the binding signal was 8390 fluorescence intensity (a.u.). Under “GGCCCAACATAGCATTATCTAACCGGATCTACTACTGTACCGGAGTCACCTAGTGCAG” stands 8140 fluorescence intensity (a.u.). Under “CGGCAAGTTATCATTTACTCCCTCCGTCCCAAAATATAATCGGAGTCACCTAGTGCAG” stands 8340 fluorescence intensity (a.u.). “AAAATGTTACACCTACTATGTTGTTCCAATTTCTAAATCACGGAGTCACCTAGTGCAG”: the binding signal was 8730 fluorescence intensity (a.u.).

On to “ACAGCCGGACACCAATCTATTCCTGGGCCCATTTCTACGGCGGAGTCACCTAGTGCAG”, for which the binding signal is 8820 fluorescence intensity (a.u.).

As to “ATCAAAACTTTCCTACACACATAAACTTCTAACTTTTCCGCGGAGTCACCTAGTGCAG”, the binding signal was 8040 fluorescence intensity (a.u.). Under “CGCCGTCTGCGAGATGCCCTTCGCCACCGTCGCGTCCGACCGGAGTCACCTAGTGCAG” stands 8650 fluorescence intensity (a.u.); under “CCTCCGTCCCATAATATAAGGGATTTTGACTTTTTACTTGCGGAGTCACCTAGTGCAG”, 10100 fluorescence intensity (a.u.).

Turning to “CACGCGCCCGGCACGTGCTCATCGTCTTCACTCTCCCAACCGGAGTCACCTAGTGCAG”, the binding signal was 8100 fluorescence intensity (a.u.). Under “GTGCGTCTTCTTTTTGCTACCTACCGTGCTAAAGCCAAAACGGAGTCACCTAGTGCAG” stands 9820 fluorescence intensity (a.u.); under “GCTCTGTTCCCGCGACAATCCTCATCTTAGATTCCGCTTCCGGAGTCACCTAGTGCAG”, 12200 fluorescence intensity (a.u.); under “TCCCATCTCTCCCGATCTCTCGCCCATTTGCCACTGATCCCGGAGTCACCTAGTGCAG”, 9820 fluorescence intensity (a.u.).

For the sequence “TGTGATAGGCTTCAATGTTTAATCTCACCATCGATTGTTACGGAGTCACCTAGTGCAG”, the binding signal was 9500 fluorescence intensity (a.u.). With “TTCTGTTCCATTTCCCATTCATCGCGCGTCGTCTCCACCTCGGAGTCACCTAGTGCAG”, the binding signal is 13400 fluorescence intensity (a.u.). Under “ATTTGGGCCTCTCAACCGCTCATCCGTCCATTCGGCCCAACGGAGTCACCTAGTGCAG” stands 8220 fluorescence intensity (a.u.).

Regarding “ATATCGAAATTGATGCTTGACCAGTCAACACTACTTAATCCGGAGTCACCTAGTGCAG”, the binding signal is 9070 fluorescence intensity (a.u.). Under “TTCGGTTTGGATCCGGTTTGTTCCACCCTTGTTCGACGGTCGGAGTCACCTAGTGCAG” stands 11100 fluorescence intensity (a.u.). For the sequence “CACTTTGCTCGTCGTCCGTGGTGGAGGCGCGGTGGGGTGGCGGAGTCACCTAGTGCAG”, the binding signal is 12700 fluorescence intensity (a.u.).

Regarding “GTATTACCGAAATTTGATAGTGTTGGTTTTGTTTGGACTTCGGAGTCACCTAGTGCAG”, the binding signal was 8590 fluorescence intensity (a.u.).

For the sequence “TGGGCATTGTTTTTCTCATTTTCTTTTTCAGTGGCACTCACGGAGTCACCTAGTGCAG”, the binding signal was 13000 fluorescence intensity (a.u.). Under “GCACTCTCTCTCGATCGTCTCTCGTCTCACCCTGAAGCCGCGGAGTCACCTAGTGCAG” stands 10500 fluorescence intensity (a.u.); under “GATTGGATTGGATTGTTTTGCTGGCTCGCTCTCTCTCTCTCGGAGTCACCTAGTGCAG”, 10200 fluorescence intensity (a.u.).

Take “CTTATATAAAAGTCCTTGTCTCCAGTCTCTCTTACCTTAACGGAGTCACCTAGTGCAG”: the binding signal is 8690 fluorescence intensity (a.u.). Under “CGCTTCCATCTCTCTCTGTCTCTCTTCTTTTTGACCTCTTCGGAGTCACCTAGTGCAG” stands 11900 fluorescence intensity (a.u.); under “CTGCCTATTTATATACAATCCTACATGCTGTAGGAATCGCCGGAGTCACCTAGTGCAG”, 8460 fluorescence intensity (a.u.); under “CCTTCACCTCCTTGCAAGTTCCATTCTTTCATCTCGCTTCCGGAGTCACCTAGTGCAG”, 16500 fluorescence intensity (a.u.). Under “TTCCACAAACACCTTGCCTGCATGCCATGCCATACCTTCTCGGAGTCACCTAGTGCAG” stands 9900 fluorescence intensity (a.u.); under “CTCGGGAATTCGGGTGGTTTGGTTGGGTTTCGTGGAGAATCGGAGTCACCTAGTGCAG”, 18700 fluorescence intensity (a.u.).

Regarding “ACCCCTGGATACAAAGCATGCGCTTCTTTACCTTTGAAAGCGGAGTCACCTAGTGCAG”, the binding signal is 9300 fluorescence intensity (a.u.).

Regarding “TCCACTCTCTCCTCTCCTCTCTTGGACTCCACTCGCCCTCCGGAGTCACCTAGTGCAG”, the binding signal was 8560 fluorescence intensity (a.u.).

Consider “GCGGCGACTTTCATCGCTTCACTCGTCATTTTCTCAAGCTCGGAGTCACCTAGTGCAG”, for which the binding signal is 9180 fluorescence intensity (a.u.).

The values are drawn from PMC7819943, “Rice protein-binding microarrays: a tool to detect cis-acting elements near promoter regions in rice”.
